Measurements reported in PubChem BioAssay AID652259 (Drosophila RNAi Screening Center, 2013).
Screen: 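Identify new Wingless signalling regulators in fly cells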 (primary screen). Cells: Drosophila clone 8 imaginal disc epithelial cells. Reagents: long dsRNA against Drosophila genes. Conditions: pathway stimulated by co-transfected Wingless expression plasmid. Measurement: 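Firefly luciferase from a tcf-site Wingless reporter, measured alongside co-transfected Renilla luciferase that tracks transfection; pathway stimulated by a Wingless plasmid; the firefly-to-Renilla ratio is not deposited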. Direction: firefly reporter light: higher = more Wg reporter light, before normalisation; Renilla control light: higher = more transfected or surviving cells. Rule for the call: 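a knock-down is a candidate when at least two out of four statistical tests show it departing from its plate mean; one test alone signals a weak candidate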. Calls: active = candidate regulator (raises or lowers reporter); inactive = not a candidate.
The screen tested about 22,000 reagents; this is an unselected part of those that have a named target and a result. In the full data, 233 (1.1%) got an active call. 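Light values are raw, unnormalised plate reads; the ratio scores behind the reporter calls were not deposited.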 Names joined by + are all predicted targets of the reagent. Reagent sequences are not shown. Not stated in the record: the amount of reagent, the time to read-out, the dose of the treatment.

What is on record for CG32187 [DRSC10521]?
firefly reporter light, replicate 1: 7360; Renilla control light, replicate 1: 2521; call: inactive

With CG4842 [DRSC10453], what was measured?
firefly reporter light, replicate 1: 7632; Renilla control light, replicate 1: 3627; call: inactive

With scra [DRSC07679], what does the deposit list?
firefly reporter light, replicate 1: 9324; Renilla control light, replicate 1: 1116; call: inactive

What is on record for Sin3A [DRSC07552]?
firefly reporter light, replicate 1: 9667; Renilla control light, replicate 1: 1851; call: inactive

With Gpo3 [DRSC01978], how do the results read?
firefly reporter light, replicate 1: 3220; firefly reporter light, replicate 2: 6016; Renilla control light, replicate 1: 1446; Renilla control light, replicate 2: 3280; call: inactive

With CG12115 [DRSC17811], how do the results read?
firefly reporter light, replicate 1: 30501; Renilla control light, replicate 1: 17747; call: inactive

With wda [DRSC15579], what was measured?
firefly reporter light, replicate 1: 25320; Renilla control light, replicate 1: 22096; call: inactive

For wda [DRSC22351], what does the deposit list?
firefly reporter light, replicate 1: 6.58e5; firefly reporter light, replicate 2: 7.20e5; Renilla control light, replicate 1: 1.31e5; Renilla control light, replicate 2: 1.80e5; call: inactive

With Pop5 [DRSC10074], what does the deposit list?
firefly reporter light, replicate 1: 7768; Renilla control light, replicate 1: 2690; call: inactive

For CRMP [DRSC12073], how do the results read?
firefly reporter light, replicate 1: 3957; Renilla control light, replicate 1: 1532; call: inactive

What is on record for CRMP [DRSC12345]?
firefly reporter light, replicate 1: 6821; Renilla control light, replicate 1: 2289; call: inactive

What is on record for DptA [DRSC07404]?
firefly reporter light, replicate 1: 13888; Renilla control light, replicate 1: 2957; call: inactive

What is on record for Gp93 [DRSC15827]?
firefly reporter light, replicate 1: 2764; firefly reporter light, replicate 2: 6458; Renilla control light, replicate 1: 1173; Renilla control light, replicate 2: 1381; call: inactive

What is on record for TBC1d7 + mRpS24 [DRSC14611]?
firefly reporter light, replicate 1: 17973; Renilla control light, replicate 1: 14388; call: inactive

With SdhBL [DRSC20039], how do the results read?
firefly reporter light, replicate 1: 13312; Renilla control light, replicate 1: 8187; call: inactive

Which result is listed for CG10750 [DRSC02105]?
firefly reporter light, replicate 1: 7611; Renilla control light, replicate 1: 2652; call: inactive

Which result is listed for Pi3K21B [DRSC00771]?
firefly reporter light, replicate 1: 4784; Renilla control light, replicate 1: 2721; call: inactive

For CG42591 [DRSC08905], what was measured?
firefly reporter light, replicate 1: 2392; Renilla control light, replicate 1: 433; call: inactive

For Cbl [DRSC10764], what does the deposit list?
firefly reporter light, replicate 1: 1490; firefly reporter light, replicate 2: 10813; Renilla control light, replicate 1: 1200; Renilla control light, replicate 2: 3668; call: inactive

Which result is listed for Cbl [DRSC11111]?
firefly reporter light, replicate 1: 1465; firefly reporter light, replicate 2: 5056; Renilla control light, replicate 1: 1016; Renilla control light, replicate 2: 2261; call: inactive

4 entries already listed, ordered by “firefly reporter light, replicate 1”, high to low:
DptA [DRSC07404] | firefly reporter light, replicate 1: 13888; Renilla control light, replicate 1: 2957; call: inactive
Pop5 [DRSC10074] | firefly reporter light, replicate 1: 7768; Renilla control light, replicate 1: 2690; call: inactive
CRMP [DRSC12345] | firefly reporter light, replicate 1: 6821; Renilla control light, replicate 1: 2289; call: inactive
CRMP [DRSC12073] | firefly reporter light, replicate 1: 3957; Renilla control light, replicate 1: 1532; call: inactive

More reagents follow.
With Bicra [DRSC14417], what does the deposit list?
reporter change call, replicate 1: Wg reporter activity raised; firefly reporter light, replicate 1: 16475; Renilla control light, replicate 1: 1756; call: active

For mRRF1 [DRSC10421], what does the deposit list?
firefly reporter light, replicate 1: 3110; Renilla control light, replicate 1: 1571; call: inactive

For CG15023 [DRSC08477], how do the results read?
firefly reporter light, replicate 1: 1990; firefly reporter light, replicate 2: 9271; Renilla control light, replicate 1: 1404; Renilla control light, replicate 2: 3373; call: inactive

For gbb [DRSC04687], what was measured?
firefly reporter light, replicate 1: 2837; firefly reporter light, replicate 2: 10069; Renilla control light, replicate 1: 691; Renilla control light, replicate 2: 2212; call: inactive

With CG2321 [DRSC15439], how do the results read?
firefly reporter light, replicate 1: 1858; firefly reporter light, replicate 2: 4998; Renilla control light, replicate 1: 945; Renilla control light, replicate 2: 2066; call: inactive

For CG10562 [DRSC14257], what does the deposit list?
firefly reporter light, replicate 1: 3504; firefly reporter light, replicate 2: 5376; Renilla control light, replicate 1: 1860; Renilla control light, replicate 2: 864; call: inactive

For orion [DRSC18213], how do the results read?
firefly reporter light, replicate 1: 12224; Renilla control light, replicate 1: 9024; call: inactive

With orion [DRSC18214], what was measured?
firefly reporter light, replicate 1: 21768; Renilla control light, replicate 1: 9504; call: inactive

For CG10947 [DRSC02111], what was measured?
firefly reporter light, replicate 1: 11360; Renilla control light, replicate 1: 3969; call: inactive

With CG11052 [DRSC14288], what was measured?
firefly reporter light, replicate 1: 15264; Renilla control light, replicate 1: 4929; call: inactive

What did the screen give for CG10366 [DRSC02046]?
firefly reporter light, replicate 1: 12229; Renilla control light, replicate 1: 2432; call: inactive

Which result is listed for Zyx [DRSC17186]?
firefly reporter light, replicate 1: 3019; Renilla control light, replicate 1: 1464; call: inactive
